Results on 31 targets are retold here after the supplement of paper PMC12819154, “High-throughput peptide-centric local stability assay extends protein–ligand identification to membrane proteins, tissues and bacteria” (Nature Structural & Molecular Biology, 2025).

Protein sequences, listed by entry. Tags and fused reporters are not part of them. Lines headed by an entry give the natural chain unless they say otherwise; changes in a name come on top.
UniProt Q03958, whole entry: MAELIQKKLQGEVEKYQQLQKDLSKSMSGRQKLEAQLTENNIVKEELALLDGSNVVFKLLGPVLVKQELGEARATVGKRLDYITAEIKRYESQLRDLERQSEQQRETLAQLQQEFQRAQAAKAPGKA
UniProt Q3TYA6: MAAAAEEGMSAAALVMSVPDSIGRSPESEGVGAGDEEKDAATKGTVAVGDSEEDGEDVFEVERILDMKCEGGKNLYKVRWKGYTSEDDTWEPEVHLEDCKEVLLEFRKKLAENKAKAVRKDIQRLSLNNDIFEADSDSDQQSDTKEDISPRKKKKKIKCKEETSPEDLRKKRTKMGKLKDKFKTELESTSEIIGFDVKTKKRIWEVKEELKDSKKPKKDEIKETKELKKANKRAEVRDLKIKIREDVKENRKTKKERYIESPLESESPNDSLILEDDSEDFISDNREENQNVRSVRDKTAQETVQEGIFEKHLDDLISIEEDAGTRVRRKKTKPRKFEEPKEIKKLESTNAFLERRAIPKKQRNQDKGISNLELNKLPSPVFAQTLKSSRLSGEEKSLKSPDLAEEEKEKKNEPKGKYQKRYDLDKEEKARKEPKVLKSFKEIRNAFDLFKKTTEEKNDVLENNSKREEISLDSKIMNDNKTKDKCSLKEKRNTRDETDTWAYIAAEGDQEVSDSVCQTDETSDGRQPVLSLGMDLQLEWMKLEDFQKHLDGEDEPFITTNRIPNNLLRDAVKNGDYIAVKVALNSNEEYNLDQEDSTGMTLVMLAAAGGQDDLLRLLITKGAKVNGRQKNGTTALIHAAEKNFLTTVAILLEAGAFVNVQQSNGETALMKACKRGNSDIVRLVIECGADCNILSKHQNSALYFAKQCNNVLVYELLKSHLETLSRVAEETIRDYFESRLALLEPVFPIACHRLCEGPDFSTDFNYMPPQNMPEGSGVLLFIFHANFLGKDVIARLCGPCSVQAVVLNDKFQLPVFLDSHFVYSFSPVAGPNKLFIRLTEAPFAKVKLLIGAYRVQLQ
UniProt Q2TPA8: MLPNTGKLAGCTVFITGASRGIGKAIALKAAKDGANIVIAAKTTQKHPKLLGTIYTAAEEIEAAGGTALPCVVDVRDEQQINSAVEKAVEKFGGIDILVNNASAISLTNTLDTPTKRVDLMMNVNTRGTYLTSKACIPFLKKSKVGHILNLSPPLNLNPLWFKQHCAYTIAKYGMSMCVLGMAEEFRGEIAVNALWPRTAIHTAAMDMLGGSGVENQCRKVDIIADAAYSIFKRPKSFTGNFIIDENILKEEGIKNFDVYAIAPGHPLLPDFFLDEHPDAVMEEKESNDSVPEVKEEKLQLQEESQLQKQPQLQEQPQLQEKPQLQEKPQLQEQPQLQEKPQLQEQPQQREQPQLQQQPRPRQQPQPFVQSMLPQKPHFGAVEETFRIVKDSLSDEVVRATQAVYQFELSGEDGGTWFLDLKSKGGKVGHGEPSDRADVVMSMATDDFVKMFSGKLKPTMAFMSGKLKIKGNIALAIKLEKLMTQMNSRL
UniProt Q149G0: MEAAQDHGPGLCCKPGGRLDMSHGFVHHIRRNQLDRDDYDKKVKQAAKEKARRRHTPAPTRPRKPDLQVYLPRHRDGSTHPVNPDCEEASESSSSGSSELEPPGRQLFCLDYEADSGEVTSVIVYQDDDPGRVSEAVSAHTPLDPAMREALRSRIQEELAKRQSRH
UniProt Q32NY4: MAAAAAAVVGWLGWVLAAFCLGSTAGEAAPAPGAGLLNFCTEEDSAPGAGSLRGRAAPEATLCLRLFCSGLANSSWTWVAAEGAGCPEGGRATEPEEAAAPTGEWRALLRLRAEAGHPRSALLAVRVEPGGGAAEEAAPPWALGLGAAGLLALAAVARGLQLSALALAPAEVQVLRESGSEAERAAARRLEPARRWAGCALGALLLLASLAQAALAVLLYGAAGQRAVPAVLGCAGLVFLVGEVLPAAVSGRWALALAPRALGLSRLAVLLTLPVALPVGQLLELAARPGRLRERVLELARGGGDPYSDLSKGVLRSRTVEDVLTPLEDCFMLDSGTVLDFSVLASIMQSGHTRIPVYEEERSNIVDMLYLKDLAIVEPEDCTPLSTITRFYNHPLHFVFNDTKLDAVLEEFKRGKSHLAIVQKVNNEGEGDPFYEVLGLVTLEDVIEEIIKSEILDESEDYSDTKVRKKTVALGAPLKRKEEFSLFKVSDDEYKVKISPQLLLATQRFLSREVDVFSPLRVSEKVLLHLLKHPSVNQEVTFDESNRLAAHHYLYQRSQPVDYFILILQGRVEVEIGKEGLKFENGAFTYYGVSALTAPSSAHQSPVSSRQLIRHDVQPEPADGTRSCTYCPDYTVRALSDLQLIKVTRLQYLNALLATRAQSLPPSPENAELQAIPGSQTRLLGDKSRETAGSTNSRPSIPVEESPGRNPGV
UniProt Q2MHN3: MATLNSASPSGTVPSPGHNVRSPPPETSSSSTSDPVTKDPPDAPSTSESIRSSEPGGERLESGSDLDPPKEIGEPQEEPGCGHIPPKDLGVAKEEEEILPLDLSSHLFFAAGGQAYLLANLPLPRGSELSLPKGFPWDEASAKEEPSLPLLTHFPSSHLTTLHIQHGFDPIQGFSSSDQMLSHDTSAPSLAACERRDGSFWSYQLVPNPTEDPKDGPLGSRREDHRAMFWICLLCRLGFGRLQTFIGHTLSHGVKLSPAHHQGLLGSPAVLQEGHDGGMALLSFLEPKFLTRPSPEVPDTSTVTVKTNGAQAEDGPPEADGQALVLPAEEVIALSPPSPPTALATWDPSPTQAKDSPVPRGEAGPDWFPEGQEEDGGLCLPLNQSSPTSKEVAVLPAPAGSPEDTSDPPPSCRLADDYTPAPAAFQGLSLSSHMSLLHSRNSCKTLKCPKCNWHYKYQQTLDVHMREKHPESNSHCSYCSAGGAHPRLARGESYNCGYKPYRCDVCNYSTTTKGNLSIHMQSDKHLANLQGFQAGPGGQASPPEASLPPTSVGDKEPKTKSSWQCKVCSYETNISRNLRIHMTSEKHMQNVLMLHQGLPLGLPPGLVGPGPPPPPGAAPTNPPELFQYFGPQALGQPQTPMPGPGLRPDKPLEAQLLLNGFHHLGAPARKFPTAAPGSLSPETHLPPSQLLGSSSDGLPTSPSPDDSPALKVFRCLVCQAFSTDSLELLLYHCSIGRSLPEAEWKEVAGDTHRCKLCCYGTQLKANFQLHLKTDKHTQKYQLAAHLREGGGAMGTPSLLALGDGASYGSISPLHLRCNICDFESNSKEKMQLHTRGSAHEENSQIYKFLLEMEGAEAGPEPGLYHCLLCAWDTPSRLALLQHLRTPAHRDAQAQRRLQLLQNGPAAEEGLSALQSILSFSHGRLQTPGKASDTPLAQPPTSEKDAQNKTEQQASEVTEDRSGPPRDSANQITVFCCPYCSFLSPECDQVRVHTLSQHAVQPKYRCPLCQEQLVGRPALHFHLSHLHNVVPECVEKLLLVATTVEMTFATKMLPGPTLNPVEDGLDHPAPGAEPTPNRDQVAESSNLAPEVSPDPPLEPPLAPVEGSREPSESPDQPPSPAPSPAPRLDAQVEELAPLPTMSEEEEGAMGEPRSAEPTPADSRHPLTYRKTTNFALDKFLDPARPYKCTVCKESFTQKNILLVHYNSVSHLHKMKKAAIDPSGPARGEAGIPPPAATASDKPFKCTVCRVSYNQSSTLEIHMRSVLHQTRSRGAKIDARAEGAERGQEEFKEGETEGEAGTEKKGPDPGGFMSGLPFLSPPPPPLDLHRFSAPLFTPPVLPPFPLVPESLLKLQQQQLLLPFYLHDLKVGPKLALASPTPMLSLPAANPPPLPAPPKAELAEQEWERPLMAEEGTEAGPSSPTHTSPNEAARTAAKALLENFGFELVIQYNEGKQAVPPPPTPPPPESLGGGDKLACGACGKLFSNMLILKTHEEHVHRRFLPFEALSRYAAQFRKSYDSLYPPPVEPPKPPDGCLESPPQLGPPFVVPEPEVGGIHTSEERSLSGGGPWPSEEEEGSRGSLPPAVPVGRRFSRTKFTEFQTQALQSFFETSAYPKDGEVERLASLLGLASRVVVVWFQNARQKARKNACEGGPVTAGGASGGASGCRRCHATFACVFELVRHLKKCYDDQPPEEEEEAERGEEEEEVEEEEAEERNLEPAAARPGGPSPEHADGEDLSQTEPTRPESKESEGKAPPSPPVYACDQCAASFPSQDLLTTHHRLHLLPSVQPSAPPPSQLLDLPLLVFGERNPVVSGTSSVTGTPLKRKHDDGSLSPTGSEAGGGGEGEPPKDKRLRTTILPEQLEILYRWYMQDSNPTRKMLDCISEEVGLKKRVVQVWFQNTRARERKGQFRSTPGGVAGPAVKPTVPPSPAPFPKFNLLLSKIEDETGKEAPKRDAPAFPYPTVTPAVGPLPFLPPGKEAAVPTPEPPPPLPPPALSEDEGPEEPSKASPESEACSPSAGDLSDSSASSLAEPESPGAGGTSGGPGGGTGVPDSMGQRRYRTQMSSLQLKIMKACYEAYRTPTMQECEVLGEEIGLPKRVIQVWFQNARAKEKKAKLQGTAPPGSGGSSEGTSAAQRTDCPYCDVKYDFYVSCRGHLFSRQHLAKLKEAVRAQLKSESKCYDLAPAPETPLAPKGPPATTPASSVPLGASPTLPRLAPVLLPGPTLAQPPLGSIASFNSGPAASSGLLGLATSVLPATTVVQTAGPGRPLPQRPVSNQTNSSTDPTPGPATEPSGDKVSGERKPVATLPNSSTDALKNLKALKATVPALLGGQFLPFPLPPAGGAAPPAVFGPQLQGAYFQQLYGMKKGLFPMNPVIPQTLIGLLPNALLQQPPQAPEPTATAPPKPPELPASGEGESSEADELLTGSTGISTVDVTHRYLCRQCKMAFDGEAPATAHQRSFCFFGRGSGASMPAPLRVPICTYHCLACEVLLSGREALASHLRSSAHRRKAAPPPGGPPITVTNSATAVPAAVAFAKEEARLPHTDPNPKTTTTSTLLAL
UniProt Q04519: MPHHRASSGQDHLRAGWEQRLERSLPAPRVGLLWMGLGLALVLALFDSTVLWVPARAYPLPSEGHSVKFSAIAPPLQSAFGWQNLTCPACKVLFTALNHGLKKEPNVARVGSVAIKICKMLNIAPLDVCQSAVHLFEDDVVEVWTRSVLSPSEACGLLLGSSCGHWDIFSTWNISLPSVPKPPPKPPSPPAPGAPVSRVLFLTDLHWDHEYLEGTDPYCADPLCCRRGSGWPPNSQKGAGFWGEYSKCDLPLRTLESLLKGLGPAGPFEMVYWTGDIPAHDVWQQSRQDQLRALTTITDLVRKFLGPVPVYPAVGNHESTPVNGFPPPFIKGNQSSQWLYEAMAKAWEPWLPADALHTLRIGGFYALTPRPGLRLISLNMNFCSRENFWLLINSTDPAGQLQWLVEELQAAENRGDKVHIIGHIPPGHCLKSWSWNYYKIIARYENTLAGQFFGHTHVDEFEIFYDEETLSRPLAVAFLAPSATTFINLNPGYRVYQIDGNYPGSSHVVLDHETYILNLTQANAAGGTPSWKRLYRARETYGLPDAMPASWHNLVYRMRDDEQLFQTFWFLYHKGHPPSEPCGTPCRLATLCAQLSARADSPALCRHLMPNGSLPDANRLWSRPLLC

Some of the results follow. Most entries show no effect beyond the scatter of the controls.

Compound in this assay: CN[C@@H]1C[C@H]2O[C@@](C)([C@@H]1OC)n1c3ccccc3c3c4c(c5c6ccccc6n2c5c31)C(=O)NC4 [staurosporine]
The experiment in a line: log2 fold change of tryptic peptide abundance, ligand vs vehicle (limited proteolysis) (log2 ratio); higher = more trypsin-susceptible (destabilized). Conditions: ligand concentration: 20 uM; sample: mouse liver crude lysate; replicate design: treated separately.
With “UniProt Q07968 (peptide sequence: NGDIVSSAAR, peptide start residue: 533)”, the log2 fold change amounted to 0.505.

Take “UniProt Q09XV5 (peptide sequence: EDEESSIQKR, peptide start residue: 567)”: the log2 fold change is 0.976.

For the target “UniProt Q03958 (peptide sequence: KLQGEVEKYQQLQK, peptide start residue: 8)”, the log2 fold change was -0.141.

In the case of “UniProt Q3TYA6 (peptide sequence: HLDGEDEPFITTNR, peptide start residue: 549)”, the log2 fold change is -0.807.

Regarding “UniProt Q08879 (peptide sequence: TCVDINECQRYPGR, peptide start residue: 398)”, the log2 fold change amounted to 0.769.

As to “UniProt Q03267 (peptide sequence: SNHSAQDAVDNLLLLSK, peptide start residue: 357)”, the log2 fold change came out at 0.406.

As for “UniProt Q148V7 (peptide sequence: VAVLEFELR, peptide start residue: 204)”, the log2 fold change was determined as 0.235.

For the target “UniProt Q14DH7 (peptide sequence: GHVPLALCVLK, peptide start residue: 590)”, the log2 fold change was 0.126.

As to “UniProt Q14AX6 (peptide sequence: EGFPITAIR, peptide start residue: 743)”, the log2 fold change is -0.424.

Turning to “UniProt Q07243 (peptide sequence: QEEACQCQCACRDSAK, peptide start residue: 628)”, the log2 fold change came out at 0.957.

As to “UniProt Q02956 (peptide sequence: DMCGLHQQHPLTLK, peptide start residue: 46)”, the log2 fold change turned out to be 0.149.

For the target “UniProt Q3U2P1 (peptide sequence: IFAMCQVK, peptide start residue: 921)”, the log2 fold change was -0.506.

Take “UniProt Q05512 (peptide sequence: TPLPTLNER, peptide start residue: 6)”: the log2 fold change is 0.146.

On to “UniProt Q3TCV3 (peptide sequence: RSTMYVR, peptide start residue: 568)”, for which the log2 fold change is -0.0862.

As to “UniProt Q2TPA8 (peptide sequence: DEQQINSAVEK, peptide start residue: 77)”, the log2 fold change was -0.23.

On to “UniProt Q3TVA9 (peptide sequence: EIEEARK, peptide start residue: 1034)”, for which the log2 fold change is 0.133.

For the target “UniProt Q149G0 (peptide sequence: VSEAVSAHTPLDPAMR, peptide start residue: 133)”, the log2 fold change stood at 0.165.

Regarding “UniProt Q04690 (peptide sequence: AVQGCGAHPAIR, peptide start residue: 450)”, the log2 fold change turned out to be 0.62.

In the case of “UniProt Q0GUM3 (peptide sequence: TKIDSDLWNEK, peptide start residue: 182)”, the log2 fold change was found to be 0.312.

Regarding “UniProt Q32NY4 (peptide sequence: IPVYEEER, peptide start residue: 355)”, the log2 fold change is -0.984.

Turning to “UniProt Q3TH73 (peptide sequence: YENVPLIGR, peptide start residue: 494)”, the log2 fold change is -0.17.

Regarding “UniProt Q03717 (peptide sequence: KEQMNEELK, peptide start residue: 141)”, the log2 fold change stood at 0.0145.

For the target “UniProt Q04859 (peptide sequence: RPTASQALK, peptide start residue: 272)”, the log2 fold change is -0.501.

Regarding “UniProt Q2MHN3 (peptide sequence: NILLVHYNSVSHLHK, peptide start residue: 1568)”, the log2 fold change was 0.596.

Consider “UniProt Q09014 (peptide sequence: AGEEITQAQR, peptide start residue: 283)”, for which the log2 fold change came to 0.279.

For the target “UniProt Q05920 (peptide sequence: NHQGLLLMDTTFRDAHQSLLATR, peptide start residue: 559)”, the log2 fold change stood at 0.308.

In the case of “UniProt Q3TNA1 (peptide sequence: ILATGGASHNK, peptide start residue: 451)”, the log2 fold change is -0.595.

For “UniProt Q04519 (peptide sequence: VLFTALNHGLK, peptide start residue: 92)”, the log2 fold change amounted to 0.451.

With “UniProt Q08481 (peptide sequence: QKPVEMSRPAAPLLNSNSEK, peptide start residue: 621)”, the log2 fold change came out at 0.174.

Take “UniProt Q02788 (peptide sequence: LFAVAPNR, peptide start residue: 202)”: the log2 fold change was -0.122.

With “UniProt Q07456 (peptide sequence: GVCEEITGAYQK, peptide start residue: 88)”, the log2 fold change turned out to be 0.777.
